{"source": "patent US12436145B2", "about": "“Cryptic antibiotics and methods for detecting bioactive cryptic metabolites” (THE TRUSTEES OF PRINCETON UNIVERSITY, priority 2019, dated 2025)", "key": {"S. hiroshimensis A18": {"tested_on": "S. hiroshimensis A18", "conditions": "33 μM atenolol vs DMSO control"}, "S. hiroshimensis": {"tested_on": "S. hiroshimensis", "assay": "Elicitor screening, supernatants in liquid bioassay against E. coli", "format": "cell-based, Streptomyces hiroshimensis", "conditions": "S. hiroshimensis grown with ~33 μM elicitor; supernatant on E. coli, OD600 nm", "protocol": "For the high-throughput-elicitor screening portion of this example, the procedure is described for S. hiroshimensis. An identical procedure was used for S. lavendulae and A. keratiniphila. […] The culture was incubated at 30° C./250 rpm for two days. Then, the mycelia cell mass was pelleted by centrifugation, the supernatant discarded, and a stock solution of 100 mg/mL cell mass was generated in R4 medium. The stock solution was used to prepare the appropriate volume (see below) of R4 medium containing 0.5 mg/mL mycelia cell mass in a 250 mL Erlenmeyer flask. The suspension was homogenized by stirring at room temperature. Subsequently, a MultiFlow Dispenser (from Biotek, Inc.) was used to dispense 150 μL of the suspension into each well of six sterile round bottom 96 well plates (from Corning, Inc.). […]\nFrom the elicitor plates, after culturing for 5 days, the plates were spun down in a 96-well plate centrifuge and the supernatants (10 μL) transferred to fresh 96-well assay plates, each well containing 100 μL LB-E. coli culture, with the E. coli cells inoculated to an initial OD600 nm OD600 nm of 0.002. The assay plates were cultured at 37° C./200 rpm overnight (10-12 h) and OD600 nm was then determined using a plate reader. […]"}, "S. cebuensis [1]": {"tested_on": "S. cebuensis", "conditions": "S. cebuensis cultures treated with elicitor"}, "S. cebuensis [2]": {"tested_on": "S. cebuensis", "assay": "Elicitor screening, supernatants on E. coli cultures (OD600 nm)", "format": "cell-based, Saccharopolyspora cebuensis", "conditions": "S. cebuensis grown with elicitor, supernatant on E. coli", "protocol": "Wild-type S. cebuensis cultures were transferred to 96 well-plates and each well was robotically supplemented with a compound from a commercial small molecule library as a source of elicitors. […] To grow the cells, the plates were incubated for a defined period. […] The OD600 nm from each well was normalized and the % E. coli growth thus obtained was plotted as a function of each elicitor, allowing one to identify at least one elicitor corresponding to a second activity greater than the first activity."}}, "note": "Entries after “also recorded” stand apart in the source; their conditions may differ."}
{"smiles": "CC(C)NCC(O)COc1ccc(CC(N)=O)cc1", "note": "(stereo not shown) [atenolol]", "values": [{"measurement": "induction of secondary metabolites (HPLC-MS peaks)", "setting": "S. hiroshimensis A18", "value": "numerous new peaks induced"}, {"measurement": "effect of elicitor-induced metabolome on E. coli growth", "setting": "S. hiroshimensis", "value": "inhibited E. coli growth best; also recorded: most effective at inhibiting E. coli"}]}
{"smiles": "NS(=O)(=O)c1cc(C(=O)O)c(NCc2ccco2)cc1Cl", "note": "[furosemide]", "values": [{"measurement": "induction of secondary metabolites (HPLC-MS profiling)", "setting": "S. cebuensis [1]", "value": "appearance of several induced metabolites"}, {"measurement": "effect of elicitor-induced metabolome on E. coli growth", "setting": "S. cebuensis [2]", "value": "inhibited it"}]}
